Measured values as given in the supplement of paper PMC12889115.
The other results are listed elsewhere or left out. These are raw signals, not scaled to a control.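 First-pass screen: polymyxin B was added at a level that permeabilizes the Salmonella outer membrane while sparing the inner membrane. DMSO wells, with and without polymyxin B, defined maximum growth. Because plates differed from one another, each plate's data were ranked separately and the compounds with the lowest OD600 were carried forward as hits.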

System: Salmonella enterica serovar Typhimurium SL1344
Experiment: bacterial growth OD600 after 18 h with compound and polymyxin B; higher = more bacterial growth (less inhibition)
Settings: 50 µM, Mueller-Hinton broth

| Structure (SMILES) | bacterial growth OD600 (polymyxin B 0.75 µg/mL) | bacterial growth OD600 (polymyxin B 1 µg/mL) |
| --- | --- | --- |
| CNc1ccc(C(=O)N2CCC(CCn3cccn3)CC2)cn1 | 0.796 | – |
| Cc1cccnc1CN1CCN(C(=O)Cn2nnnc2CN(C)C(C)C)CC1 | – | 0.855 |
| CCN1CCN(CC(=O)NCc2ccc3[nH]c(C)c(C)c3c2)CC1 | 0.838 | – |
| CS(=O)(=O)N1C[C@H]2OC(=O)N(CCCc3ccc(F)cc3)[C@H]2C1 | 0.845 | – |
| Cc1ccc2nc(N3CCC(C(=O)N4CC5CCC4C5)CC3)nc(C)c2c1 (stereo not given) | 0.857 | – |
| CCOC(=O)CNC(=O)N1CCC(C2CCN(Cc3cccnc3)CC2)C1 (stereo not given) | – | 1.04 |
| Cc1ccccc1-n1ncc2c1CC(C)(C)CC2NC(=O)Cc1nonc1C (stereo not given) | 0.827 | – |
| CSc1ccc(CC(=O)NCc2nc(-c3ccccc3NC(=O)C3CCC3)oc2C)cc1 | 0.873 | – |
| CCC(NC(=O)c1ccc2nc(CCOC)oc2c1)c1nc2cc(C)ccc2[nH]1 (stereo not given) | – | 0.814 |
| CN(C)C1(C(=O)NCc2cn3c(n2)SCC3)Cc2ccccc2C1 | 0.85 | – |
| CN(Cc1cnccn1)C(=O)C1(N2CCCCC2)Cc2ccccc2C1 | 0.008 | – |
| COC(=O)[C@H](Cc1ccccc1)NC1CCN(c2ccc(CC(=O)NCc3ccccc3)cc2)CC1 | 0.81 | – |
| CCC(NC1CCN(c2ccc(C(=O)NC3CCCC3)cc2)CC1)c1nc2cc(C)ccc2[nH]1 (stereo not given) | 0.701 | – |
| Cc1cccnc1CN(C)CC1(O)CCCN(CC2CCC2)C1=O (stereo not given) | – | 0.925 |
| CN(CC1CCCN(CCc2ccc(Cl)cc2)C1)C(=O)CCC(F)(F)F (stereo not given) | – | 0.985 |
| CCCN(CC1CCCO1)C(=O)c1ccc2nc(C3CCCCC3)oc2c1 (stereo not given) | – | 0.897 |
| CC(C)CC(=O)Nc1ccnn1C1CCN(C(=O)C(=O)CCc2ccccc2)CC1 | – | 0.009 |
| COc1ccc(CN2CCN(Cc3ccc(OC)cc3F)C(CCO)C2)cc1 (stereo not given) | – | 0.846 |
| C/C=C(\C)CN1CCCC(Nc2cccc(F)c2)C1 (stereo not given) | 0.866 | – |
| O=C(COc1ccccc1)N1CCC(C2CCN(c3ncccn3)CC2)C1 (stereo not given) | 0.75 | – |
| O[C@@H]1CN(Cc2ccsc2)CC[C@H]1N1CCN(CCc2ccccc2)CC1 | – | 1.09 |
| COc1ccc(CC2(CCC(=O)NCc3c(F)cccc3F)CCC(=O)N2)c(F)c1 (stereo not given) | 0.828 | – |
| Cc1ccccc1SC1CCN(C(=O)Cn2cc(NC(=O)CCOc3ccccc3)cn2)CC1 | 0.854 | – |
| Cn1ccnc1C1CCCCN1C(=O)CC1(c2ccccc2)CC(=O)N(CCc2ccccn2)C1=O (stereo not given) | 0.923 | – |
| COc1cccc(CNC(=O)CCC2CCCN(Cc3cccc(C)n3)C2)c1 (stereo not given) | – | 1.09 |
| CCC(=O)N[C@@H]1c2ccccc2C2(CCN(C(=O)c3ccc(C)cc3)CC2)[C@H]1OCc1cccnc1 | 0.596 | – |
| COc1cc(CC2(CCC(=O)N3CCC(c4ccccc4Cl)C3)CCC(=O)N2)ccc1F (stereo not given) | 0.778 | – |
| O=C(NCc1ccccc1)C1CCCN(C2CCN(C3CCCCC3)CC2)C1 (stereo not given) | 0.762 | – |
| CN(C)c1ncccc1CNS(=O)(=O)c1ccc2c(c1)OCCO2 | – | 0.942 |
| CNC(C)c1cnc(N2CCCCCCC2)nc1C (stereo not given) | 0.497 | – |

Full records, looked up by structure.
CCCN(CC1CCCO1)C(=O)c1ccc2nc(C3CCCCC3)oc2c1 (stereo not given) is entered as bacterial growth OD600 (polymyxin B 1 µg/mL): 0.897
CCOC(=O)CNC(=O)N1CCC(C2CCN(Cc3cccnc3)CC2)C1 (stereo not given) is entered as bacterial growth OD600 (polymyxin B 1 µg/mL): 1.04
